# Measurements: the supplement of paper PMC8728848
# The other results are listed elsewhere or left out.
# B1: MFG-E8 (Homo sapiens), Q08431 (protein)
# chain: MPRPRLLAALCGALLCAPSLLVALDICSKNPCHNGGLCEEISQEVRGDVFPSYTCTCLKGYAGNHCETKCVEPLGLENGNIANSQIAASSVRVTFLGLQHWVPELARLNRAGMVNAWTPSSNDDNPWIQVNLLRRMWVTGVVTQGASRLASHEYLKAFKVAYSLNGHEFDFIHDVNKKHKEFVGNWNKNAVHVNLFETPVEAQYVRLYPTSCHTACTLRFELLGCELNGCANPLGLKNNSIPDKQITASSSYKTWGLHLFSWNPSYARLDKQGNFNAWVAGSYGNDQWLQVDLGSSKEVTGIITQGARNFGSVQFVASYKVAYSNDSANWTEYQDPRTGSSKIFPGNWDNHSHKKNLFETPILARYVRILPVAWHNRIALRLELLGC
# What was measured:
# Test in all cases: glycan array binding signal (z-score within array); higher = stronger binding
# Settings in all cases: glycan notation: IUPAC condensed, linker removed
# [1] = biological target: Gal3S(b1-3)[Fuc(a1-4)]GlcNAc
# In short: (§1)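 From the Consortium for Functional Glycomics database, 3228 arrays were curated, keeping only those whose protein sequence was available. Binding is given as a within-array Z-score averaged across arrays sharing a protein sequence and across linkers. Negative Z-scores can be read as non-binding.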
# Gal3S(b1-4)Glc = biological target: Gal3S(b1-4)Glc
# In short: as §1
# Gal3S(b1-4)Glc6S = biological target: Gal3S(b1-4)Glc6S
# In short: as §1
# Gal3S(b1-4)GlcNAc = biological target: Gal3S(b1-4)GlcNAc
# In short: as §1
# Gal3S(b1-4)GlcNAc6S = biological target: Gal3S(b1-4)GlcNAc6S
# In short: as §1
# [2] = biological target: Gal3S(b1-4)[Fuc(a1-3)]Glc
# In short: as §1
# [3] = biological target: Gal3S(b1-4)[Fuc(a1-3)]Glc6S
# In short: as §1
# Gal3S4S(b1-4)GlcNAc = biological target: Gal3S4S(b1-4)GlcNAc
# In short: as §1
# Gal3S6S(b1-4)GlcNAc = biological target: Gal3S6S(b1-4)GlcNAc
# In short: as §1
# Gal3S6S(b1-4)GlcNAc6S = biological target: Gal3S6S(b1-4)GlcNAc6S
# In short: as §1
# Gal4S(b1-4)GlcNAc = biological target: Gal4S(b1-4)GlcNAc
# In short: as §1
# Gal4S6S(b1-4)GlcNAc = biological target: Gal4S6S(b1-4)GlcNAc
# In short: as §1
# Gal6S(b1-3)GlcNAc = biological target: Gal6S(b1-3)GlcNAc
# In short: as §1
# Gal6S(b1-3)GlcNAc6S = biological target: Gal6S(b1-3)GlcNAc6S
# In short: as §1
# Gal6S(b1-4)Glc = biological target: Gal6S(b1-4)Glc
# In short: as §1
# Gal6S(b1-4)Glc6S = biological target: Gal6S(b1-4)Glc6S
# In short: as §1
# Gal6S(b1-4)GlcNAc = biological target: Gal6S(b1-4)GlcNAc
# In short: as §1
# Gal6S(b1-4)GlcNAc6S = biological target: Gal6S(b1-4)GlcNAc6S
# In short: as §1
# GalNAc(a1-3)Gal = biological target: GalNAc(a1-3)Gal
# In short: as §1
# GalNAc(a1-3)GalNAc = biological target: GalNAc(a1-3)GalNAc
# In short: as §1
# [4] = biological target: GalNAc(a1-3)GalNAc(b1-3)Gal(a1-4)Gal(b1-4)Glc
# In short: as §1
# [5] = biological target: GalNAc(a1-3)GalNAc(b1-3)Gal(a1-4)Gal(b1-4)GlcNAc
# In short: as §1
# GalNAc(b1-3)Gal = biological target: GalNAc(b1-3)Gal
# In short: as §1
# [6] = biological target: GalNAc(b1-3)Gal(a1-4)Gal(b1-4)GlcNAc
# In short: as §1
# [7] = biological target: GalNAc(b1-3)Gal(a1-4)Gal(b1-4)GlcNAc(b1-3)Gal(b1-4)Glc
# In short: as §1
# [8] = biological target: GalNAc(b1-3)Gal(a1-6)Gal(b1-4)Glc
# In short: as §1
# GalNAc(b1-3)GalNAc = biological target: GalNAc(b1-3)GalNAc
# In short: as §1
# GalNAc(b1-4)Gal(b1-4)Glc = biological target: GalNAc(b1-4)Gal(b1-4)Glc
# In short: as §1
# GalNAc(b1-4)GlcNAc = biological target: GalNAc(b1-4)GlcNAc
# In short: as §1
# [9] = biological target: GalNAc(b1-4)GlcNAc(b1-2)Man(a1-3)[GalNAc(b1-4)GlcNAc(b1-2)Man(a1-6)]Man(b1-4)GlcNAc(b1-4)GlcNAc
# In short: as §1
# GalNAc(b1-6)GalNAc = biological target: GalNAc(b1-6)GalNAc
# In short: as §1
# Glc(a1-4)Glc = biological target: Glc(a1-4)Glc
# In short: as §1
# [10] = biological target: Glc(a1-4)Glc(a1-4)Glc(a1-4)Glc
# In short: as §1
# Glc(a1-6)Glc(a1-6)Glc = biological target: Glc(a1-6)Glc(a1-6)Glc
# In short: as §1
# [11] = biological target: Glc(a1-6)Glc(a1-6)Glc(a1-6)Glc
# In short: as §1
# Glc(b1-4)Glc = biological target: Glc(b1-4)Glc
# In short: as §1
# Glc(b1-6)Glc = biological target: Glc(b1-6)Glc
# In short: as §1
binder,measurement,setting,value
B1,glycan array binding signal (z-score),[1],-0.189
same,glycan array binding signal (z-score),Gal3S(b1-4)Glc,0.294
same,glycan array binding signal (z-score),Gal3S(b1-4)Glc6S,6.38
same,glycan array binding signal (z-score),Gal3S(b1-4)GlcNAc,-0.337
same,glycan array binding signal (z-score),Gal3S(b1-4)GlcNAc6S,1.6
same,glycan array binding signal (z-score),[2],0.12
same,glycan array binding signal (z-score),[3],0.702
same,glycan array binding signal (z-score),Gal3S4S(b1-4)GlcNAc,1.82
same,glycan array binding signal (z-score),Gal3S6S(b1-4)GlcNAc,1.72
same,glycan array binding signal (z-score),Gal3S6S(b1-4)GlcNAc6S,1.81
same,glycan array binding signal (z-score),Gal4S(b1-4)GlcNAc,-0.668
same,glycan array binding signal (z-score),Gal4S6S(b1-4)GlcNAc,1.02
same,glycan array binding signal (z-score),Gal6S(b1-3)GlcNAc,-0.566
same,glycan array binding signal (z-score),Gal6S(b1-3)GlcNAc6S,3.63
same,glycan array binding signal (z-score),Gal6S(b1-4)Glc,-0.25
same,glycan array binding signal (z-score),Gal6S(b1-4)Glc6S,1.06
same,glycan array binding signal (z-score),Gal6S(b1-4)GlcNAc,-0.293
same,glycan array binding signal (z-score),Gal6S(b1-4)GlcNAc6S,1.07
same,glycan array binding signal (z-score),GalNAc(a1-3)Gal,-0.785
same,glycan array binding signal (z-score),GalNAc(a1-3)GalNAc,-0.801
same,glycan array binding signal (z-score),[4],-0.507
same,glycan array binding signal (z-score),[5],0.265
same,glycan array binding signal (z-score),GalNAc(b1-3)Gal,-0.767
same,glycan array binding signal (z-score),[6],-0.764
same,glycan array binding signal (z-score),[7],-0.322
same,glycan array binding signal (z-score),[8],-0.564
same,glycan array binding signal (z-score),GalNAc(b1-3)GalNAc,-0.787
same,glycan array binding signal (z-score),GalNAc(b1-4)Gal(b1-4)Glc,0.155
same,glycan array binding signal (z-score),GalNAc(b1-4)GlcNAc,-0.41
same,glycan array binding signal (z-score),[9],-0.75
same,glycan array binding signal (z-score),GalNAc(b1-6)GalNAc,-0.79
same,glycan array binding signal (z-score),Glc(a1-4)Glc,-0.67
same,glycan array binding signal (z-score),[10],-0.487
same,glycan array binding signal (z-score),Glc(a1-6)Glc(a1-6)Glc,-0.216
same,glycan array binding signal (z-score),[11],-0.668
same,glycan array binding signal (z-score),Glc(b1-4)Glc,-0.729
same,glycan array binding signal (z-score),Glc(b1-6)Glc,-0.467

# Exported bar-delimited: entries from further up.
binder | measurement | setting | value
B1 | glycan array binding signal (z-score) | Gal3S4S(b1-4)GlcNAc | 1.82
same | glycan array binding signal (z-score) | Gal6S(b1-3)GlcNAc | -0.566
same | glycan array binding signal (z-score) | [5] | 0.265
